# Source: PubChem BioAssay AID652248 (Drosophila RNAi Screening Center, 2013)
# Purpose: 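Genes that govern switching among distinct shape types in fly blood cells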 (primary screen)
# Cells: cultured Drosophila hemocytes
# Reagents: long dsRNA against Drosophila genes
# Detection: 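Automated microscopy of stained actin, tubulin and nuclei; single-cell shape measures assigned to five reference shape types, giving a score per dsRNA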
# Scale: elongated score: higher = more elongated bipolar cells; normal round score: higher = more normal rounded cells; teardrop score: higher = more small teardrop-shaped cells
# Call rule: 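a gene counts as active when its knock-down clearly increases the elongated score; a low similarity score was then used to rank the actives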
# Shown is an unselected part of 863 reagents tested. Of all reagents, 32 (3.7%) were called active. 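Calls also used reproducibility and a similarity ranking whose scores are not deposited; many active genes show only modest elongated scores.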 A number with no mark means an inactive call. The numbers tell different reagents against one gene apart. Not given: the amount of reagent, the time to read-out.
The first 2 records as a preview:
gene,reagent no.,"elongated score, rep 1","elongated score, rep 2","normal round score, rep 1","teardrop score, rep 1"
CkIIalpha (casein kinase IIalpha),1,0.91,,-0.31,-1.02
Ptp61F (Protein tyrosine phosphatase 61F),1,-0.53,,0.86,-0.78

Main list, repeating the preview:
gene,reagent no.,"elongated score, rep 1","elongated score, rep 2","normal round score, rep 1","teardrop score, rep 1"
CkIIalpha (casein kinase IIalpha),1,0.91,,-0.31,-1.02
Ptp61F (Protein tyrosine phosphatase 61F),1,-0.53,,0.86,-0.78
Ptp61F (Protein tyrosine phosphatase 61F),2,-0.38,,-2.15,0.79
sgg (shaggy),1,-0.05,,-0.21,-0.88
sgg (shaggy),2,-0.29,,0.26,-0.78
sgg (shaggy),3,-0.35,,0.81,-0.68
sgg (shaggy),4,2.37,,-1.98,2.25
Nak (Numb-associated kinase),1,-0.01,,-0.05,-0.34
Nak (Numb-associated kinase),2,2.88,,-1.07,0.56
bsk (basket),1,-0.14,,-1.27,1.52
smal (smoke alarm),1,1.26,-0.09,-1.15,0.4
smal (smoke alarm),2,-0.11,,0.7,-0.59
smal (smoke alarm),3,-0.11,,-0.48,1.04
smal (smoke alarm),4,0.95,,-1.81,2.45
smal (smoke alarm),5,4.55,,-1.89,0.59
"PTPMT1 (Protein tyrosine phosphatase, mitochondrial 1)",1,-0.45,,0.19,0.25
aPKC (atypical protein kinase C),1,0.88,,0.3,0.84
aPKC (atypical protein kinase C),2,1.49,,0.38,0.79
CG3632,1,1.68,,-2.73,3.07
Fak (Focal adhesion kinase),1,-0.19 (active),,-1.11,1.5
Fak (Focal adhesion kinase),2,3.86 (active),,-0.86,-0.66
Cep97 (Centrosomal protein 97kDa),1,-0.27,,-0.51,0.59
mts (microtubule star),1,0.34,,-1.5,0.85
PpN58A (Protein phosphatase N at 58A),1,1.04,,-1.19,1.51
PpN58A (Protein phosphatase N at 58A),2,-0.53,,0.08,0.24
Ptp36E (Protein tyrosine phosphatase 36E),1,-0.11,,-2.61,1.79
Shark (SH2 ankyrin repeat kinase),1,-0.44,,-0.11,0.46
Shark (SH2 ankyrin repeat kinase),2,0.35,,-0.87,0.22
Cdk8 (Cyclin-dependent kinase 8),1,-0.53,,-0.33,0.82
Cdk8 (Cyclin-dependent kinase 8),2,-0.02,,0.08,-0.51
sktl (skittles),1,2.83,,-3.8,3.64
Pdk1 (Phosphoinositide-dependent kinase 1),1,-0.23,,-0.27,0.52
Pdk1 (Phosphoinositide-dependent kinase 1),2,3.15,,-0.97,0.04
aay (astray),1,-0.39,,-0.09,0.03
CG1951,1,-0.19,,-0.52,1.17
aurA (aurora A),1,-0.07,,0.43,-0.26
aurA (aurora A),2,-0.4,,-0.51,-0.15
Phlpp (PH domain leucine-rich repeat protein phosphatase),1,0.6,,-3.34,4.49
Phlpp (PH domain leucine-rich repeat protein phosphatase),2,-0.53,,-0.35,1.07
fu (fused),1,1.18,,-1.72,1.44
fu (fused),2,0.79,,-0.27,0.02
MKP-4 (MAPK Phosphatase 4),1,0.51,,-1.52,1.45
MKP-4 (MAPK Phosphatase 4),2,-0.25,,-0.11,0.4
Mos (Mos oncogene),1,-0.53,,0.86,-0.64
ksr (kinase suppressor of ras),1,0.88,,-0.45,0.21
yata,1,-0.53,,-1.8,2.05
